± gives the standard deviation of the averaged measurements. The reference is the same well before dosing, and untreated signal decays as well.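 Labels refer to human fibroblasts, largely primary: uterine (C12385, HUF), lung (H6013), bone (Hs27A), adrenal (HADF), skin (WS1), plus mammary HMF and breast cancer-associated Hs343T. Cancer lines are basal-like or mesenchymal-like triple-negative breast cancer. The paper counts as hits responses shifting over 3x the replicate standard deviation. The tissue of the other fibroblasts is not given here.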
Test system: MDAMB468
Assay: relative JC-1 red fluorescence (viability) vs pre-drug, coculture with fibroblast (fraction); higher = more viable cancer cells
Description: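 JC-1 labelled TNBC cells cocultured 1:1 (1,500 cells each) with CellTrace Violet stained primary or stromal fibroblasts in 384-well plates in FluoroBrite medium, treated with one of 42 anticancer drugs at 0.1, 1, 10 or 100 uM. JC-1 red fluorescence (mitochondrial integrity in cancer cells only) was read by plate reader every 8 h for 72 h. Values are normalised to each well's pre-drug value. The stock of one drug was tenfold lower, so its dose labels may be too high.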

C#Cc1cccc(Nc2ncnc3cc(OCCOC)c(OCCOC)cc23)c1 [Erlotinib]
relative JC-1 red fluorescence
Settings	8 h	16 h	24 h	32 h	40 h	48 h	56 h	64 h	72 h
10 µM, coculture fibroblast: C12385	0.915 ± 0.014	0.8662 ± 0.0025	0.8378 ± 0.0058	0.7842 ± 0.0032	0.761 ± 0.0082	0.74 ± 0.0026	0.708 ± 0.0084	0.676 ± 0.013	0.6572 ± 0.0036
10 µM, coculture fibroblast: H6013	0.875 ± 0.013	0.845 ± 0.022	0.814 ± 0.011	0.8344 ± 0.003	0.808 ± 0.012	0.832 ± 0.018	0.812 ± 0.0089	0.805 ± 0.013	0.781 ± 0.015
10 µM, coculture fibroblast: H6019	0.854 ± 0.016	0.833 ± 0.029	0.827 ± 0.059	0.786 ± 0.041	0.741 ± 0.033	0.731 ± 0.035	0.694 ± 0.038	0.666 ± 0.042	0.655 ± 0.039
10 µM, coculture fibroblast: H6076	0.923 ± 0.0093	0.938 ± 0.054	0.9436 ± 0.0067	0.959 ± 0.0091	0.925 ± 0.023	0.9256 ± 0.0089	0.8908 ± 0.0057	0.8843 ± 0.0067	0.9327 ± 0.003
10 µM, coculture fibroblast: H6231	0.8421 ± 0.0081	0.9723 ± 0.0013	0.877 ± 0.02	0.847 ± 0.033	0.841 ± 0.041	0.823 ± 0.042	0.779 ± 0.03	0.766 ± 0.049	0.765 ± 0.046
10 µM, coculture fibroblast: HADF	0.888 ± 0.024	0.876 ± 0.023	0.841 ± 0.037	0.862 ± 0.062	0.809 ± 0.062	0.802 ± 0.049	0.773 ± 0.062	0.755 ± 0.061	0.73 ± 0.083
10 µM, coculture fibroblast: HCFa	0.8747 ± 0.0028	0.8338 ± 0.0078	0.7987 ± 0.0013	0.777 ± 0.016	0.727 ± 0.02	0.738 ± 0.03	0.703 ± 0.036	0.685 ± 0.029	0.651 ± 0.031
10 µM, coculture fibroblast: HCPF	0.8775 ± 0.0081	0.964 ± 0.039	0.948 ± 0.043	0.929 ± 0.052	0.906 ± 0.043	0.889 ± 0.035	0.847 ± 0.025	0.847 ± 0.018	0.8069 ± 0.0038
10 µM, coculture fibroblast: HHSteC	0.898 ± 0.017	0.895 ± 0.01	0.877 ± 0.0091	0.883 ± 0.023	0.85 ± 0.01	0.856 ± 0.021	0.8 ± 0.021	0.781 ± 0.016	0.749 ± 0.0093
10 µM, coculture fibroblast: HMF	0.825 ± 0.0099	0.722 ± 0.04	0.9768 ± 0.0054	0.952 ± 0.013	0.93197 ± 0.00079	0.9269 ± 0.0082	0.876 ± 0.023	0.871 ± 0.031	0.837 ± 0.026
10 µM, coculture fibroblast: HPFa	0.9183 ± 0.009	0.892 ± 0.028	0.877 ± 0.03	0.843 ± 0.029	0.814 ± 0.049	0.827 ± 0.038	0.768 ± 0.052	0.748 ± 0.05	0.695 ± 0.058
10 µM, coculture fibroblast: HUF	0.9376 ± 0.0066	0.8911 ± 0.0026	0.857 ± 0.016	0.808 ± 0.022	0.77 ± 0.012	0.734 ± 0.018	0.694 ± 0.014	0.6827 ± 0.0027	0.6543 ± 0.0034
10 µM, coculture fibroblast: Hs5	0.7405 ± 0.0033	0.823 ± 0.15	0.9804 ± 0.0089	0.94 ± 0.019	0.898 ± 0.012	0.872 ± 0.021	0.848 ± 0.027	0.824 ± 0.039	0.834 ± 0.047
10 µM, coculture fibroblast: Hs27A	0.866 ± 0.018	0.8424 ± 0.0084	0.7881 ± 0.0069	0.8082 ± 0.0015	0.74 ± 0.011	0.728 ± 0.016	0.695 ± 0.019	0.666 ± 0.021	0.628 ± 0.014
10 µM, coculture fibroblast: Hs343T	0.858 ± 0.013	0.872 ± 0.1	0.911 ± 0.034	0.883 ± 0.037	0.855 ± 0.033	0.846 ± 0.033	0.799 ± 0.027	0.791 ± 0.036	0.767 ± 0.042
10 µM, coculture fibroblast: WS1	0.913 ± 0.014	0.8573 ± 0.0061	0.8352 ± 0.0047	0.799 ± 0.018	0.765 ± 0.022	0.735 ± 0.048	0.711 ± 0.036	0.672 ± 0.049	0.658 ± 0.048
100 µM, coculture fibroblast: C12385	0.968 ± 0.043	0.848 ± 0.12	0.89 ± 0.052	0.85 ± 0.086	0.939 ± 0.077	0.807 ± 0.13	0.931 ± 0.093	0.925 ± 0.09	0.923 ± 0.083
100 µM, coculture fibroblast: H6013	0.93 ± 0.037	0.955 ± 0.06	0.937 ± 0.076	0.801 ± 0.086	0.89872 ± 0.00076	0.814 ± 0.15	0.863 ± 0.1	0.847 ± 0.14	0.95 ± 0.061
100 µM, coculture fibroblast: H6019	0.889 ± 0.022	0.894 ± 0.047	0.888 ± 0.046	0.877 ± 0.051	0.862 ± 0.051	0.873 ± 0.045	0.851 ± 0.054	0.849 ± 0.054	0.842 ± 0.053
100 µM, coculture fibroblast: H6076	0.948 ± 0.044	0.9329 ± 0.0058	0.881 ± 0.044	0.884 ± 0.042	0.92 ± 0.07	0.932 ± 0.072	0.927 ± 0.074	0.934 ± 0.08	0.832 ± 0.12
100 µM, coculture fibroblast: H6231	0.873 ± 0.013	0.955 ± 0.051	0.909 ± 0.056	0.911 ± 0.027	0.875 ± 0.04	0.874 ± 0.044	0.84 ± 0.045	0.838 ± 0.05	0.845 ± 0.052
100 µM, coculture fibroblast: HADF	0.973 ± 0.014	0.749 ± 0.049	0.966 ± 0.021	0.877 ± 0.15	0.937 ± 0.078	0.807 ± 0.1	0.917 ± 0.1	0.762 ± 0.012	0.9 ± 0.1
100 µM, coculture fibroblast: HCFa	0.915 ± 0.021	0.862 ± 0.14	0.882 ± 0.12	0.833 ± 0.19	0.819 ± 0.15	0.846 ± 0.12	0.808 ± 0.16	0.9173 ± 0.0066	0.803 ± 0.13
100 µM, coculture fibroblast: HCPF	0.932 ± 0.031	0.901 ± 0.11	0.941 ± 0.016	0.886 ± 0.12	0.963 ± 0.017	0.9537 ± 0.0079	0.931 ± 0.0047	0.9339 ± 0.0069	0.934 ± 0.02
100 µM, coculture fibroblast: HHSteC	0.951 ± 0.061	0.90519 ± 0.00024	0.792 ± 0.14	0.821 ± 0.07	0.841 ± 0.059	0.853 ± 0.064	0.832 ± 0.04	0.8406 ± 0.0032	0.911 ± 0.13
100 µM, coculture fibroblast: HMF	0.932 ± 0.023	0.862 ± 0.065	0.979 ± 0.019	0.958 ± 0.029	0.889 ± 0.013	0.886 ± 0.012	0.8555 ± 0.0033	0.8493 ± 0.0047	0.8527 ± 0.006
100 µM, coculture fibroblast: HPFa	0.9467 ± 0.0032	0.9648 ± 0.0057	0.94 ± 0.011	0.914 ± 0.0062	0.896 ± 0.02	0.913 ± 0.02	0.858 ± 0.044	0.856 ± 0.062	0.785 ± 0.073
100 µM, coculture fibroblast: HUF	0.94374 ± 0.00054	0.889 ± 0.012	0.871 ± 0.029	0.839 ± 0.027	0.807 ± 0.053	0.785 ± 0.034	0.753 ± 0.049	0.738 ± 0.036	0.728 ± 0.026
100 µM, coculture fibroblast: Hs5	0.865 ± 0.17	0.981 ± 0.019	0.966 ± 0.021	0.96 ± 0.012	0.928 ± 0.014	0.91 ± 0.012	0.902 ± 0.05	0.894 ± 0.05	0.925 ± 0.063
100 µM, coculture fibroblast: Hs27A	0.9062 ± 0.0056	0.947 ± 0.011	0.885 ± 0.014	0.901 ± 0.0052	0.8557 ± 0.001	0.8634 ± 0.0068	0.829 ± 0.011	0.818 ± 0.015	0.787 ± 0.02
100 µM, coculture fibroblast: Hs343T	0.8917 ± 0.0022	0.96 ± 0.043	0.9584 ± 0.0089	0.9308 ± 0.00096	0.864 ± 0.015	0.856 ± 0.019	0.8176 ± 0.008	0.8038 ± 0.0035	0.7887 ± 0.0014
100 µM, coculture fibroblast: WS1	0.943 ± 0.013	0.922 ± 0.032	0.944 ± 0.072	0.906 ± 0.087	0.889 ± 0.11	0.851 ± 0.079	0.821 ± 0.056	0.831 ± 0.078	0.83 ± 0.073

Source: the supplement of paper PMC6078165
